Test results: US20240034757A1
These are yes or no findings as the source states them, for the method shown. For part of these data: Sequences can lack the tags named with a protein.

Sequences of proteins named here, by UniProt entry; tags and fusion partners are left off. Residues count along the entry.
UniProt Q16627, residues 22-93: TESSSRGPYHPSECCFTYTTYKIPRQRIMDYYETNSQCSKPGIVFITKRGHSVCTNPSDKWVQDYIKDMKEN
UniProt Q16663, residues 22-113: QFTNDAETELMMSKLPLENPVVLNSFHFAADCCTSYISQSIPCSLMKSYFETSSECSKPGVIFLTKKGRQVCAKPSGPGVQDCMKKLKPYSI
UniProt Q99731, residues 22-98: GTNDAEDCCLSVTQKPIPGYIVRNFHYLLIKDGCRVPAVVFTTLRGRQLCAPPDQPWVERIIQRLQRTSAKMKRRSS
UniProt P78556, residues 27-96: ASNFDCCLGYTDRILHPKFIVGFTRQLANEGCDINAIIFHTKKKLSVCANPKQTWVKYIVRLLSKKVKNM
UniProt O00585, residues 24-134: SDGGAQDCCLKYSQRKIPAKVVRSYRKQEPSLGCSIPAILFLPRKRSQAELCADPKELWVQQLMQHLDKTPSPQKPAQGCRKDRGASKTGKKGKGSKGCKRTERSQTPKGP
UniProt O00626, residues 25-93: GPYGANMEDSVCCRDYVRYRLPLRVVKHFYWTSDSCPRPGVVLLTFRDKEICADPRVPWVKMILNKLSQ
UniProt P55773, residues 22-120: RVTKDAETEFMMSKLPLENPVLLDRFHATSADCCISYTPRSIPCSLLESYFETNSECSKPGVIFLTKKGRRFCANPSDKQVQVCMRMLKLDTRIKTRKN
UniProt Q9Y4X3, residues 25-112: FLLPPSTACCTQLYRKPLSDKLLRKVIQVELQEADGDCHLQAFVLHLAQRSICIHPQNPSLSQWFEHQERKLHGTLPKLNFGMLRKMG
UniProt Q9NRJ3, residues 23-127: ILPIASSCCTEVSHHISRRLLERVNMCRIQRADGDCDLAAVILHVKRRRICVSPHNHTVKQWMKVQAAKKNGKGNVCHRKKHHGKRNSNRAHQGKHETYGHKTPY
UniProt P78423, residues 25-100: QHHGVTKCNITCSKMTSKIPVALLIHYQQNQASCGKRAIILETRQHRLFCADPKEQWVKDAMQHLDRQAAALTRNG
UniProt P09341, residues 35-107: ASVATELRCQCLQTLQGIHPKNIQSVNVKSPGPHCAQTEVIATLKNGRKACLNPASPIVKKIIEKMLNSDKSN
UniProt P19875, residues 35-107: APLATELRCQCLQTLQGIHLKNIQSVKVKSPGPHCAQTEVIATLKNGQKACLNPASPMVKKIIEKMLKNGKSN
UniProt P19876, residues 35-107: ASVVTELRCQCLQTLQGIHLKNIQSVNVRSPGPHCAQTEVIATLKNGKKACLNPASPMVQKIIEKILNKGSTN
UniProt P02776, residues 32-101: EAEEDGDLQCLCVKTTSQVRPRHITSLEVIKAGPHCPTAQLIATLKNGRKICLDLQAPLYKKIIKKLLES
UniProt P42830, residues 41-114: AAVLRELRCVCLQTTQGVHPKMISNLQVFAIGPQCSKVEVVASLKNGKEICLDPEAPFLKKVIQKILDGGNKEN
UniProt P80162, residues 38-114: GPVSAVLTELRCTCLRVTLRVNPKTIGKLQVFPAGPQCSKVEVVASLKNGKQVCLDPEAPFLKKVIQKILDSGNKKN
UniProt P02775, residues 59-128: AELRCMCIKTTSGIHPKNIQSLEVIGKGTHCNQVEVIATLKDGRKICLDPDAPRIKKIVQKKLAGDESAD
UniProt P10145, residues 28-99: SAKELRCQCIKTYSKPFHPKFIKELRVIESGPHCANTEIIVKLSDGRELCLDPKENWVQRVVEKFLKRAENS
UniProt Q07325, residues 23-125: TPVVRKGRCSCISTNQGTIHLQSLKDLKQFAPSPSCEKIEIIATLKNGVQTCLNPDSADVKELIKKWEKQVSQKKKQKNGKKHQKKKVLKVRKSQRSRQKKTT
UniProt P48061, residues 22-89: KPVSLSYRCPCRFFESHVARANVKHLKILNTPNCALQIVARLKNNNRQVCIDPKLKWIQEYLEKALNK
UniProt O43927, residues 23-109: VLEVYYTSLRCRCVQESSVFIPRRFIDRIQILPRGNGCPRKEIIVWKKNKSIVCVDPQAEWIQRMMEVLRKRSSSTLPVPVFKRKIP
UniProt O95715, residues 35-111: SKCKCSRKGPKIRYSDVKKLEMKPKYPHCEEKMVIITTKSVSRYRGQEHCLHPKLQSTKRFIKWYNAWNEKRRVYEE
UniProt P02778, residues 22-98: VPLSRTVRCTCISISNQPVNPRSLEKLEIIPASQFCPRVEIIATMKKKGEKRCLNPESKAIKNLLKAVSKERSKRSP
UniProt O14625, residues 22-94: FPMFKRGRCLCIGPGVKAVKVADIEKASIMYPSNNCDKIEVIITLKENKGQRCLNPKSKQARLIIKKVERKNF

Experiments:
CCL14_HUMAN (human) = CCL14_HUMAN (human) (UniProt Q16627); experiment: BLI, empty cell the 12th table, row 24, column 12
CCL15_HUMAN (human) = CCL15_HUMAN (human) (UniProt Q16663); experiment: BLI, empty cell the 12th table, row 25, column 12
CCL19_HUMAN (human) = CCL19_HUMAN (human) (UniProt Q99731); experiment: BLI, empty cell the 12th table, row 29, column 12
CCL20_HUMAN (human) = CCL20_HUMAN (human) (UniProt P78556); experiment: BLI, empty cell the 12th table, row 30, column 12
CCL21_HUMAN (human) = CCL21_HUMAN (human) (UniProt O00585); experiment: BLI, empty cell the 12th table, row 32, column 12
CCL22_HUMAN (human) = CCL22_HUMAN (human) (UniProt O00626); experiment: BLI, empty cell the 12th table, row 33, column 12
CCL23_HUMAN (human) = CCL23_HUMAN (human) (UniProt P55773); experiment: BLI, empty cell the 12th table, row 34, column 12
CCL27_HUMAN (human) = CCL27_HUMAN (human) (UniProt Q9Y4X3); experiment: BLI, empty cell the 12th table, row 38, column 12
CCL28_HUMAN (human) [1] = target: CCL28_HUMAN (human) (UniProt Q9NRJ3); experiment: BLI, empty cell the 12th table, row 40, column 12
CX3CL1_HUMAN (human) [2] = target: CX3CL1_HUMAN (human) (UniProt P78423); experiment: BLI, empty cell the 12th table, row 41, column 12
CXCL1_HUMAN (human) [3] = target: CXCL1_HUMAN (human) (UniProt P09341); experiment: BLI, empty cell the 12th table, row 42, column 12
CXCL2_HUMAN (human) [4] = target: CXCL2_HUMAN (human) (UniProt P19875); experiment: BLI, empty cell the 12th table, row 43, column 12
CXCL3_HUMAN (human) [5] = target: CXCL3_HUMAN (human) (UniProt P19876); experiment: BLI, empty cell the 12th table, row 44, column 12
CXCL4_HUMAN (human) [6] = target: CXCL4_HUMAN (human) (UniProt P02776); experiment: BLI, empty cell the 12th table, row 45, column 12
CXCL5_HUMAN (human) [7] = target: CXCL5_HUMAN (human) (UniProt P42830); experiment: BLI, empty cell the 12th table, row 46, column 12
CXCL6_HUMAN (human) [8] = target: CXCL6_HUMAN (human) (UniProt P80162); experiment: BLI, empty cell the 12th table, row 47, column 12
CXCL7_HUMAN (human) [9] = target: CXCL7_HUMAN (human) (UniProt P02775); experiment: BLI, empty cell the 12th table, row 48, column 12
CXCL8_HUMAN (human) [10] = target: CXCL8_HUMAN (human) (UniProt P10145); experiment: BLI, empty cell the 12th table, row 49, column 12
CXCL9_HUMAN (human) [11] = target: CXCL9_HUMAN (human) (UniProt Q07325); experiment: BLI, empty cell the 12th table, row 50, column 12
CXCL12_HUMAN (human) = CXCL12_HUMAN (human) (UniProt P48061); experiment: BLI, empty cell the 12th table, row 53, column 12
CXCL13_HUMAN (human) [12] = target: CXCL13_HUMAN (human) (UniProt O43927); experiment: BLI, empty cell the 12th table, row 54, column 12
CXCL14_HUMAN (human) [13] = target: CXCL14_HUMAN (human) (UniProt O95715); experiment: BLI, empty cell the 12th table, row 55, column 12
XCL1_HUMAN (human) [14] = target: T1, XCL1_HUMAN (human) (UniProt P47992); experiment: BLI, empty cell the 12th table, row 59, column 12
T1 sequence: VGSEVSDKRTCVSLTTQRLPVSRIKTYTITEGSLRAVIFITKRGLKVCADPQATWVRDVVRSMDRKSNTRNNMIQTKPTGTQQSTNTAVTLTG

CCL28_HUMAN (human) [15] = target: CCL28_HUMAN (human) (UniProt Q9NRJ3); experiment: BLI, empty cell the 12th table, row 40, column 5
CX3CL1_HUMAN (human) [16] = target: CX3CL1_HUMAN (human) (UniProt P78423); experiment: BLI, empty cell the 12th table, row 41, column 5
CXCL1_HUMAN (human) [17] = target: CXCL1_HUMAN (human) (UniProt P09341); experiment: BLI, empty cell the 12th table, row 42, column 5
CXCL2_HUMAN (human) [18] = target: CXCL2_HUMAN (human) (UniProt P19875); experiment: BLI, empty cell the 12th table, row 43, column 5
CXCL3_HUMAN (human) [19] = target: CXCL3_HUMAN (human) (UniProt P19876); experiment: BLI, empty cell the 12th table, row 44, column 5
CXCL4_HUMAN (human) [20] = target: CXCL4_HUMAN (human) (UniProt P02776); experiment: BLI, empty cell the 12th table, row 45, column 5
CXCL5_HUMAN (human) [21] = target: CXCL5_HUMAN (human) (UniProt P42830); experiment: BLI, empty cell the 12th table, row 46, column 5
CXCL6_HUMAN (human) [22] = target: CXCL6_HUMAN (human) (UniProt P80162); experiment: BLI, empty cell the 12th table, row 47, column 5
CXCL7_HUMAN (human) [23] = target: CXCL7_HUMAN (human) (UniProt P02775); experiment: BLI, empty cell the 12th table, row 48, column 5
CXCL8_HUMAN (human) [24] = target: CXCL8_HUMAN (human) (UniProt P10145); experiment: BLI, empty cell the 12th table, row 49, column 5
CXCL9_HUMAN (human) [25] = target: CXCL9_HUMAN (human) (UniProt Q07325); experiment: BLI, empty cell the 12th table, row 50, column 5
CXCL10_HUMAN (human) = CXCL10_HUMAN (human) (UniProt P02778); experiment: BLI, empty cell the 12th table, row 51, column 5
CXCL11_HUMAN (human) = CXCL11_HUMAN (human) (UniProt O14625); experiment: BLI, empty cell the 12th table, row 52, column 5
CXCL13_HUMAN (human) [26] = target: CXCL13_HUMAN (human) (UniProt O43927); experiment: BLI, empty cell the 12th table, row 54, column 5
CXCL14_HUMAN (human) [27] = target: CXCL14_HUMAN (human) (UniProt O95715); experiment: BLI, empty cell the 12th table, row 55, column 5
XCL1_HUMAN (human) [28] = target: T1, XCL1_HUMAN (human); experiment: BLI, empty cell the 12th table, row 59, column 5

Measured: binding

B1: P985_AMBPA (protein)
chain: DEESEELGASTDVDYEELDANCTCPAPALTSTRNNKHYPLGCIYNCSSYNCTIPDGTPCYVLTLGEVKEHLQIGSTVPNCTCGLCRNGTCVSNGTVEECFAVEEIEET
not listed: CCL28_HUMAN (human) [15] | CX3CL1_HUMAN (human) [16] | CXCL1_HUMAN (human) [17] | CXCL2_HUMAN (human) [18] | CXCL3_HUMAN (human) [19] | CXCL4_HUMAN (human) [20] | CXCL5_HUMAN (human) [21] | CXCL6_HUMAN (human) [22] | CXCL7_HUMAN (human) [23] | CXCL8_HUMAN (human) [24] | CXCL9_HUMAN (human) [25] | CXCL10_HUMAN (human) | CXCL11_HUMAN (human) | CXCL13_HUMAN (human) [26] | CXCL14_HUMAN (human) [27] | XCL1_HUMAN (human) [28]
no binding (tested: 300 nM): all other assays above

B2: P991_AMBCA (protein)
chain: ENGEGTTQPDYDNSTDYYNYEDFKCTCPAPHLNNTNGTVMKPIGCYYTCNVTRCTAPDTYPCYNLTEHQAKNLTTSPTTLCAVGNCDHGICVPNGTKELCFKAPNLEE
no binding (tested: 300 nM): CCL28_HUMAN (human) [15] | CX3CL1_HUMAN (human) [16] | CXCL1_HUMAN (human) [17] | CXCL2_HUMAN (human) [18] | CXCL3_HUMAN (human) [19] | CXCL4_HUMAN (human) [20] | CXCL5_HUMAN (human) [21] | CXCL6_HUMAN (human) [22] | CXCL7_HUMAN (human) [23] | CXCL8_HUMAN (human) [24] | CXCL9_HUMAN (human) [25] | CXCL10_HUMAN (human) | CXCL11_HUMAN (human) | CXCL13_HUMAN (human) [26] | CXCL14_HUMAN (human) [27] | XCL1_HUMAN (human) [28]
